Source: article PMC8692912
Results are given in words; binding and its absence hold for the method and conditions named. In cells and extracts the contact can be indirect. Some results given as binding are weak or reduced against the parent protein; the word gives no strength.

Amino acid sequences for entries named in this document (tags omitted). Residues count along the entry.
UniProt P26041: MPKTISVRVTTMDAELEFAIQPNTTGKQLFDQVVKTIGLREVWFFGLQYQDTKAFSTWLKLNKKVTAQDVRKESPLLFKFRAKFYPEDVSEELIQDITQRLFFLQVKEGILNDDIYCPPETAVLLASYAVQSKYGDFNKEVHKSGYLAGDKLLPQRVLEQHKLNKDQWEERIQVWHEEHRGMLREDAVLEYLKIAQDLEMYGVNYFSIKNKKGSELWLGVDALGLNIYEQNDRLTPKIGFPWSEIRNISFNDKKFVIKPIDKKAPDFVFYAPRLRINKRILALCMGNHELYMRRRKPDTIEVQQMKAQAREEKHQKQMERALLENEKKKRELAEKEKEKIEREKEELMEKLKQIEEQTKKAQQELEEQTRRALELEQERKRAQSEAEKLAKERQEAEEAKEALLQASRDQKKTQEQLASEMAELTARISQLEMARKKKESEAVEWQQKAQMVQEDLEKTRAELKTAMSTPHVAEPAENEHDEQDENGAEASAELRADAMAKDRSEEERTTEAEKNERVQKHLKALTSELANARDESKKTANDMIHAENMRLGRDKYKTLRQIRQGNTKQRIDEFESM
UniProt P11276, residues 33-2477: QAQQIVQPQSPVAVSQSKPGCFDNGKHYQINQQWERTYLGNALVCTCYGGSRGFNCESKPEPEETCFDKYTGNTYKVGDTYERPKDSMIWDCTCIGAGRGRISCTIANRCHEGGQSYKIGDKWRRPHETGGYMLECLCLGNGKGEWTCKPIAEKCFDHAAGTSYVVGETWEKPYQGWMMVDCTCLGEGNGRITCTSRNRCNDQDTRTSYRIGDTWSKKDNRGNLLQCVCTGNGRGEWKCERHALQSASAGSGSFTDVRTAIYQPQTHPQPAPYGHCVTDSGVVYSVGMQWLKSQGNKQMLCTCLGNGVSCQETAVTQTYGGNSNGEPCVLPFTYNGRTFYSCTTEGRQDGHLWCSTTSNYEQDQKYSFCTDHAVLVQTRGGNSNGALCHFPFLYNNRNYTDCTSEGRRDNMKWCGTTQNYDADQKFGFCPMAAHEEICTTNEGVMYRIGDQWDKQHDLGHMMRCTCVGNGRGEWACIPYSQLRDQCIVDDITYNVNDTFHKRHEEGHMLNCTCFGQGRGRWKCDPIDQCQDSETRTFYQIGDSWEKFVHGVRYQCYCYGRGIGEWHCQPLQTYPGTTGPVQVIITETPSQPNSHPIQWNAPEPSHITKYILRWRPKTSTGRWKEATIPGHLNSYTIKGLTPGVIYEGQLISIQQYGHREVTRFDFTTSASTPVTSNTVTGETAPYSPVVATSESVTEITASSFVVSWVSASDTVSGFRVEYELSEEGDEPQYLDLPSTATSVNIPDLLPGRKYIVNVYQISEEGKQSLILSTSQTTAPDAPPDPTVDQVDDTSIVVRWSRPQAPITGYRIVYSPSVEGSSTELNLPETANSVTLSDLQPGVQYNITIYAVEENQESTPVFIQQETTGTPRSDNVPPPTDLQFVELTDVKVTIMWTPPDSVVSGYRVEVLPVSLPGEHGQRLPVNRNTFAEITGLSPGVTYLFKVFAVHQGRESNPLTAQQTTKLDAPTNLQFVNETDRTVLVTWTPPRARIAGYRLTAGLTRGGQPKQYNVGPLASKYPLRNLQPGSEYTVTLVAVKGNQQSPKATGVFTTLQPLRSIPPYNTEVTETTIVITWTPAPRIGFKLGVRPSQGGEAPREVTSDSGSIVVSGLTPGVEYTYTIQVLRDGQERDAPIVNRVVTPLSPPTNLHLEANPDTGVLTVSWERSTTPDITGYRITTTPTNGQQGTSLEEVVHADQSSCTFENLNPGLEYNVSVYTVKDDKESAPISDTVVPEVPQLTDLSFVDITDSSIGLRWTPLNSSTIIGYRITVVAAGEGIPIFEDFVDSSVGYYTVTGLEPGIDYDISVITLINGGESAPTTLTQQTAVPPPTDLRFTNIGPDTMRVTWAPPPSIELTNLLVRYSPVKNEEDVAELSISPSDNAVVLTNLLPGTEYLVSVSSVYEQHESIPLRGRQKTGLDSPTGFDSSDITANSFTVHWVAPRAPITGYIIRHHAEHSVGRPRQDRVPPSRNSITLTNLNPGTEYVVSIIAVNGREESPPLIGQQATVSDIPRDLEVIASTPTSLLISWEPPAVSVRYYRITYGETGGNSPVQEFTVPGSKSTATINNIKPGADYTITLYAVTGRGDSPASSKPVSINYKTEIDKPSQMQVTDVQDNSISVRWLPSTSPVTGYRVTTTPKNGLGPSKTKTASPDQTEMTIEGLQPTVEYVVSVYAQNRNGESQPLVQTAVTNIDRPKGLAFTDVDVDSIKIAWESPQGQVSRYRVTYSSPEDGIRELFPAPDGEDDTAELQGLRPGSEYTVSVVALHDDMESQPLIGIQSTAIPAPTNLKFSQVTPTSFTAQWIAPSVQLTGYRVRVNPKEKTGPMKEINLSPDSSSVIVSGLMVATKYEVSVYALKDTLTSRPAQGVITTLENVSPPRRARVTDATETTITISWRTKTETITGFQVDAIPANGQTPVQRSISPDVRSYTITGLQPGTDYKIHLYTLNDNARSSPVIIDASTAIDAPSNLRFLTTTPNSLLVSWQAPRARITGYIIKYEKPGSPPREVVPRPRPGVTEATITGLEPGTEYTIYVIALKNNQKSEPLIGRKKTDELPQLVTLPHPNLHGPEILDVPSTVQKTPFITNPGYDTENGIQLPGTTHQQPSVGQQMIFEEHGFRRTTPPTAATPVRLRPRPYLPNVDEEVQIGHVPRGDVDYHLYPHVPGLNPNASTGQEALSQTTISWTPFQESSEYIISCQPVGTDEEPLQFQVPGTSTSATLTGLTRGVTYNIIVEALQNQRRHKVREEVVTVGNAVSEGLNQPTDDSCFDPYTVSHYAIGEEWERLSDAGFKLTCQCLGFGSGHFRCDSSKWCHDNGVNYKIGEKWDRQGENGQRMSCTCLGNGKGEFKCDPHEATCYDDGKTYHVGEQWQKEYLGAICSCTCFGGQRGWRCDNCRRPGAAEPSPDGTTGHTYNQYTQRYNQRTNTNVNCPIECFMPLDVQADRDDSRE

Biological target: moesin (MSN) (mouse (endogenous in EO771)) (UniProt P26041)
Assay: co-IP; rabbit antibody to MSN on protein A sepharose, incubated overnight with EO771 extracellular matrix proteins; washed three times with PBS; blot for FN1; rabbit IgG as negative control

binding: binds
Substance: fibronectin 1 (FN1) (from UniProt P11276 33-2477)
